Measurements as given in the supplement of paper PMC10849652.
The list shows a part of the results.

By UniProt entry, the sequences of proteins in these tests, tags left out. Where a name states a change or a piece, a line headed by the entry shows the natural chain unless it says otherwise.
UniProt Q96A72, whole entry, looked up: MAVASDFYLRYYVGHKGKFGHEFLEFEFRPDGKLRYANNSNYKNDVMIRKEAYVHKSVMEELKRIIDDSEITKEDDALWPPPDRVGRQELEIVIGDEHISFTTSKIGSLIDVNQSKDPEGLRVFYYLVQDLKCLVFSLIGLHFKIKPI
UniProt Q5SRI9: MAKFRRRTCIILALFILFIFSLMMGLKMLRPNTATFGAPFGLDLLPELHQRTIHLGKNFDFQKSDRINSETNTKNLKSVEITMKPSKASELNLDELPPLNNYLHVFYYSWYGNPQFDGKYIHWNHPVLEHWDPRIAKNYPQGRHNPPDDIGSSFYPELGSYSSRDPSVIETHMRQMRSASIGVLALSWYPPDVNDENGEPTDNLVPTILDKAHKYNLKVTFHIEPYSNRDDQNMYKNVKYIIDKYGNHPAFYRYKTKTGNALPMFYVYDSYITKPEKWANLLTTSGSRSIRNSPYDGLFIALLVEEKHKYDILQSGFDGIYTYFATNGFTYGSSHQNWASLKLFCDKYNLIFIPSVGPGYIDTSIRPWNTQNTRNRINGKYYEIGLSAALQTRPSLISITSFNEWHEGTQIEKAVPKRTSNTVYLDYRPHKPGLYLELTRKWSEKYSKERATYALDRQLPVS
UniProt Q3KQU3: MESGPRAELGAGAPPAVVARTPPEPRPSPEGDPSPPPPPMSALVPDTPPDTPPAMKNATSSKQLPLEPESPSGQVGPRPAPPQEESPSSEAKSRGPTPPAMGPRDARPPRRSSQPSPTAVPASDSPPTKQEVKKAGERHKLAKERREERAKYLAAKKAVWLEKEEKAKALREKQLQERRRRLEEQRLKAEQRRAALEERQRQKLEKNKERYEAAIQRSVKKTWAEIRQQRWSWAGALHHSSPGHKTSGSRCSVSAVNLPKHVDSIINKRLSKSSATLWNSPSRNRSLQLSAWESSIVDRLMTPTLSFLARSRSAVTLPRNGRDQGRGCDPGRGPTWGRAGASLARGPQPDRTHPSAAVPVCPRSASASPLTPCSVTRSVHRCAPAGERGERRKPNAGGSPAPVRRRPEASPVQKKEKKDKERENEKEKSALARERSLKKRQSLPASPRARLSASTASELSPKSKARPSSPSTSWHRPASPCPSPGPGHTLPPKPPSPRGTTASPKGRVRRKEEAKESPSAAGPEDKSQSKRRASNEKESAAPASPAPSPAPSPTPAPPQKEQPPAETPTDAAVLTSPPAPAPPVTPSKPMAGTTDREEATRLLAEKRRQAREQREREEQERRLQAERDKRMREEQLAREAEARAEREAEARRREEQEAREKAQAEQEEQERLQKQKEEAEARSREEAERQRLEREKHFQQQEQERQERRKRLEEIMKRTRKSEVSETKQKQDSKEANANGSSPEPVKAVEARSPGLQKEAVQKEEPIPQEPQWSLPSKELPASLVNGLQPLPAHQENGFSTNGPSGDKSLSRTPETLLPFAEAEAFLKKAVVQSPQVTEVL
UniProt Q8IWT6: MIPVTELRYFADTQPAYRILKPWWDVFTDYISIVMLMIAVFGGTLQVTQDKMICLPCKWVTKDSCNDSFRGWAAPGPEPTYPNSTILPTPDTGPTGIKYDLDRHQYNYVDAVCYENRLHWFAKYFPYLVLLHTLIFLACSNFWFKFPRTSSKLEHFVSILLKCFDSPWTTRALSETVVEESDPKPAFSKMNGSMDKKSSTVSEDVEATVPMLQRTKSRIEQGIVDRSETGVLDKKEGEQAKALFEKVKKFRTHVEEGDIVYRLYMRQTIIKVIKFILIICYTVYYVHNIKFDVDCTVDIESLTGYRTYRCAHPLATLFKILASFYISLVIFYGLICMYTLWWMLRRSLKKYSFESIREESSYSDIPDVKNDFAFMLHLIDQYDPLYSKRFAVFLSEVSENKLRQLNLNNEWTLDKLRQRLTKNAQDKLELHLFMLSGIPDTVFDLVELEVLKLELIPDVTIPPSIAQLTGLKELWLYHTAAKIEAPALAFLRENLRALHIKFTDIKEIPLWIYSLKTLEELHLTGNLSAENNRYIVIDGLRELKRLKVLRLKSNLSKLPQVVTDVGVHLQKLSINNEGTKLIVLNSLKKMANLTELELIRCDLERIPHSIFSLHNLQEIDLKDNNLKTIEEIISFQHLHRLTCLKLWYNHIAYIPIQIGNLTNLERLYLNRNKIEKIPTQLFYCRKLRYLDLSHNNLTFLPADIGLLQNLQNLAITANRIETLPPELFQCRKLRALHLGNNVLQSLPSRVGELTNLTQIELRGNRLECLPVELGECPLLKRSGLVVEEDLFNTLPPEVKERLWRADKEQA
UniProt O00754: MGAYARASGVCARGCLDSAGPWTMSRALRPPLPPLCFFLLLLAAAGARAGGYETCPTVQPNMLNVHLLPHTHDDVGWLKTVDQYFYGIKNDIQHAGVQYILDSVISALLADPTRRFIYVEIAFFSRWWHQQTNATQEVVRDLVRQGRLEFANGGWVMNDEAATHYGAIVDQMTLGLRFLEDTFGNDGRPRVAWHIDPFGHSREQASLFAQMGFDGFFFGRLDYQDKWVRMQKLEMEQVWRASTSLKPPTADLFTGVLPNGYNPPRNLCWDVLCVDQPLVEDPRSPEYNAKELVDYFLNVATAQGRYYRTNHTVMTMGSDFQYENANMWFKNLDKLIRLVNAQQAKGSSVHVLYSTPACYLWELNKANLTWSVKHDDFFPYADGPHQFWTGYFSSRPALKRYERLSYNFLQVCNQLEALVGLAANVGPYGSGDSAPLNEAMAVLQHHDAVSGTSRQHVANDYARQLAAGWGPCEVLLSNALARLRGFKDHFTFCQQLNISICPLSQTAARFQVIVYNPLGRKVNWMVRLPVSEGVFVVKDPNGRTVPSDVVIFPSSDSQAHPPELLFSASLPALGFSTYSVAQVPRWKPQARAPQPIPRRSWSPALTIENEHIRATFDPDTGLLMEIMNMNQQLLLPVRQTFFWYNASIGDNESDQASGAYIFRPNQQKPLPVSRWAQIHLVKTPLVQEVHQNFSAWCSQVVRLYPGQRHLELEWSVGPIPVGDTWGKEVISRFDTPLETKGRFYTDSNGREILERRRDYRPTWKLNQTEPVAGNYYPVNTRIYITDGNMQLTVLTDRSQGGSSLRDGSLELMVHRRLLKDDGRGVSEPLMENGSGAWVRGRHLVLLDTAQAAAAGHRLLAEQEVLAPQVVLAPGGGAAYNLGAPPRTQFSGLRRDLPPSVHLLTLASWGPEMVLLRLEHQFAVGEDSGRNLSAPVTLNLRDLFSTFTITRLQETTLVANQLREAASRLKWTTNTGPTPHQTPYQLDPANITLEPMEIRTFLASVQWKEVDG
UniProt Q14244: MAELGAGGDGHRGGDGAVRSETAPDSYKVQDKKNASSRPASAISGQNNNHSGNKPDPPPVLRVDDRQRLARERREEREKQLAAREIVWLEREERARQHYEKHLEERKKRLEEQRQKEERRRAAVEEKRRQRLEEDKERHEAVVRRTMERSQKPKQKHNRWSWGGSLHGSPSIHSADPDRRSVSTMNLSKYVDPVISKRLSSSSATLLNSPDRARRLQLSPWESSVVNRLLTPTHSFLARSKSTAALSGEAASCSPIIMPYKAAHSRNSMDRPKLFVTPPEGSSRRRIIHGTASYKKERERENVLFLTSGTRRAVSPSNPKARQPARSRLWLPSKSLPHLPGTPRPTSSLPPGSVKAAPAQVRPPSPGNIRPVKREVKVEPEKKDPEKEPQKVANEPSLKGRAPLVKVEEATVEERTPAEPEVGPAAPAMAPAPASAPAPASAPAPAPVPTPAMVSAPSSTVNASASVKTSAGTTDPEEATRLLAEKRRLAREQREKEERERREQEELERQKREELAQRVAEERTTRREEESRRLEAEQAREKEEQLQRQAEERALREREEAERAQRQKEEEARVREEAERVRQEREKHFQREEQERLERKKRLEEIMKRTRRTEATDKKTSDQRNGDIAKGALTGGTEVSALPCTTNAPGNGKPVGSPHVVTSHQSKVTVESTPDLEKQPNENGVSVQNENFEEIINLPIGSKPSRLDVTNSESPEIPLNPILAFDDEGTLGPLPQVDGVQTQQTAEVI
UniProt P09960: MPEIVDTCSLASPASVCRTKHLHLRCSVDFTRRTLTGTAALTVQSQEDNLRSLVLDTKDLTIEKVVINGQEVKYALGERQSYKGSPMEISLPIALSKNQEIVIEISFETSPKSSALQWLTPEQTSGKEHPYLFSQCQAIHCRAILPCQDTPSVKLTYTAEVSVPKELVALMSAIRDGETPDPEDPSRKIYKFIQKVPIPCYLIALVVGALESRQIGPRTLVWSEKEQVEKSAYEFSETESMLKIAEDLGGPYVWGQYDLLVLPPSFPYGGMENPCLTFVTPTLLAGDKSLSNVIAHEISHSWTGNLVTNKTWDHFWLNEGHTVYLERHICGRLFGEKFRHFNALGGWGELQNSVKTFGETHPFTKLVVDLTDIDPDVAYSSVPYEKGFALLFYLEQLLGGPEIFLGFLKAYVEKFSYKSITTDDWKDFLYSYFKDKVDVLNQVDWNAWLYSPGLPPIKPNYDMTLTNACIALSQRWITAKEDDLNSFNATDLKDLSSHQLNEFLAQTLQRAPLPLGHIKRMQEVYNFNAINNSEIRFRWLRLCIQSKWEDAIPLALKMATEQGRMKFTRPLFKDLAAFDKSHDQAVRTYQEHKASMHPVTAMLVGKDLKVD
UniProt P33908: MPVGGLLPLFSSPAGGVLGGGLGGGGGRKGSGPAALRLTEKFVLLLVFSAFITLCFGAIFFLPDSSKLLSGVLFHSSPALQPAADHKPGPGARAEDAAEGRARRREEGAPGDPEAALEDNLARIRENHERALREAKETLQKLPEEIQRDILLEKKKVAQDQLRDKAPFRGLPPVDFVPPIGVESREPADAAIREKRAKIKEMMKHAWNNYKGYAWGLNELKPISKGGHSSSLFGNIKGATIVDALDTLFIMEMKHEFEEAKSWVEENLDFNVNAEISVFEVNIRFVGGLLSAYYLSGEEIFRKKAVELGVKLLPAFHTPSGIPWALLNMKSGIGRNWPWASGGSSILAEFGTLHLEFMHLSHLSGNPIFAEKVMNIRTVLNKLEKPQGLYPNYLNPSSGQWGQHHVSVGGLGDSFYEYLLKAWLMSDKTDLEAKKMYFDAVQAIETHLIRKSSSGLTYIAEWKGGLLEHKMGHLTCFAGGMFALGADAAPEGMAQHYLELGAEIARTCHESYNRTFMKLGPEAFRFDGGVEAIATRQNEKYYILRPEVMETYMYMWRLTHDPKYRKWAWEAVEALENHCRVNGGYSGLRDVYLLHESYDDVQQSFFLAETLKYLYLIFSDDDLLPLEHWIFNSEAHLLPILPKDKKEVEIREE
UniProt Q9Y4Z0: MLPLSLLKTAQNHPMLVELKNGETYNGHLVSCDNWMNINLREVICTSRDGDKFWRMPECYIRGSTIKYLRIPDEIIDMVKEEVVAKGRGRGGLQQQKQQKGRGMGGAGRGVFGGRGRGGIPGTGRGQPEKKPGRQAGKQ
UniProt P62312: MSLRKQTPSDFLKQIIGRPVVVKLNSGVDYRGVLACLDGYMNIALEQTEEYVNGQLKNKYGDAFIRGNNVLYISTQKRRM
UniProt P27361, whole entry, looked up: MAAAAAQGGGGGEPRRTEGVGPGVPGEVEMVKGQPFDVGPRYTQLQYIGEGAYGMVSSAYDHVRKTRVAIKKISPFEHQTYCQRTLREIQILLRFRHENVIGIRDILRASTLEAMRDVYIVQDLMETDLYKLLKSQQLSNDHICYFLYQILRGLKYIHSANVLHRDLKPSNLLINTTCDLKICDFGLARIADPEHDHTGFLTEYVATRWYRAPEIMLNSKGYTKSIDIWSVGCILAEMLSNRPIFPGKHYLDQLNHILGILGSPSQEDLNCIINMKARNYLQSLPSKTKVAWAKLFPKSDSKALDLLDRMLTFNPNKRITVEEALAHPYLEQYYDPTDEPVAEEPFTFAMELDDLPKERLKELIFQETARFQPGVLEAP
UniProt P02788: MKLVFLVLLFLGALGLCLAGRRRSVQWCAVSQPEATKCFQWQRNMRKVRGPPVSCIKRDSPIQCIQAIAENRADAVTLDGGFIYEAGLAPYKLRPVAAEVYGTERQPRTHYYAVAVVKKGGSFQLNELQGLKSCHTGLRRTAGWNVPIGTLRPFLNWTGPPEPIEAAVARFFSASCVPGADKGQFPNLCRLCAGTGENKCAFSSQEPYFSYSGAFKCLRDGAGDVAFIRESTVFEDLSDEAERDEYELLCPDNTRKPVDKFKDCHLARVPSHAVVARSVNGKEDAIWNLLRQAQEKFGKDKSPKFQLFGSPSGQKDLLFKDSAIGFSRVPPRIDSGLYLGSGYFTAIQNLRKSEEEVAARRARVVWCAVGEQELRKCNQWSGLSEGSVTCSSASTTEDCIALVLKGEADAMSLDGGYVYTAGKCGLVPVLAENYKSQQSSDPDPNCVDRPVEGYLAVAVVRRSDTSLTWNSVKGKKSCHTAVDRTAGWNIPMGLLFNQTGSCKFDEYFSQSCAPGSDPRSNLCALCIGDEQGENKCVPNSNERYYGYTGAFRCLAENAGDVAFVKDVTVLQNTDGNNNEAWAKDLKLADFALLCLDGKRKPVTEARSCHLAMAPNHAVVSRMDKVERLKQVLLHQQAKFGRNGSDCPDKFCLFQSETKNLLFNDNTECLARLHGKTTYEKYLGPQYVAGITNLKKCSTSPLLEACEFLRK

What was measured:
Experiment in all cases: log2 fold change, soluble protein after heating vs DMSO (PISA); higher = thermal stabilisation; K562 cells, 10 uM, 30 min; active = over 0.2 and 3.5 SD of the protein, either way, in both replicates (recomputed)
[1] = compound: NC(=O)Nc1cc(-c2cccc(F)c2)sc1C(=O)N[C@H]1CCCNC1
Procedure, shortened: (§1)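 Quantification of soluble protein used TMTpro 16plex LC-MS/MS, with channel sums equalised. Samples were the supernatant after 21,000xg for 90 min of pooled aliquots from K562 cells (2×10^6 cells/mL) treated with 10 μM compound for 30 min, heated for 3 min over 48°C-58°C, and extracted in PBS with 0.5% NP-40 at 4°C. Values, from duplicates, describe thermal stability against control samples on a log2 fold-change scale.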

[2] = compound: NC(=O)c1cnc(N[C@@H]2CCCC[C@@H]2N)nc1Nc1cccc(-n2nccn2)c1
Procedure, shortened: as §1

[3] = compound: NC1(c2ccc(-c3nc4ccn5c(=O)[nH]nc5c4cc3-c3ccccc3)cc2)CCC1
Procedure, shortened: as §1

[4] = compound: NCC(=O)Nc1ccc(-n2nc(C(F)(F)F)cc2-c2ccc3c(ccc4ccccc43)c2)cc1
Procedure, shortened: as §1

entinostat = compound: Nc1ccccc1NC(=O)c1ccc(CNC(=O)OCc2cccnc2)cc1 [entinostat]
Procedure, shortened: as §1

vorinostat = compound: O=C(CCCCCCC(=O)Nc1ccccc1)NO [vorinostat]
Procedure, shortened: as §1

citarinostat = compound: O=C(CCCCCCNC(=O)c1cnc(N(c2ccccc2)c2ccccc2Cl)nc1)NO [citarinostat]
Procedure, shortened: as §1

silmitasertib = compound: O=C(O)c1ccc2c(c1)nc(Nc1cccc(Cl)c1)c1ccncc12 [silmitasertib]
Procedure, shortened: as §1

[5] = compound: O=C1NC(=O)C(c2cnc3ccccn23)=C1c1cn2c3c(cc(F)cc13)CN(C(=O)N1CCCCC1)CC2
Procedure, shortened: as §1

[6] = compound: c1cc(OCCN2CCCCC2)cc(-c2n[nH]c3ccc(-c4nnc[nH]4)cc23)c1
Procedure, shortened: as §1

entospletinib = compound: c1cn2cc(-c3ccc4cn[nH]c4c3)nc(Nc3ccc(N4CCOCC4)cc3)c2n1 [entospletinib]
Procedure, shortened: as §1

Measured: log2 fold change

MAGOHB (UniProt Q96A72)
inactive: [1] -0.081 | [2] 0.177 | [3] -0.039 | [4] -0.132 | entinostat 0.016 | vorinostat -0.023 | citarinostat 0.043 | silmitasertib -0.006 | [5] 0.002 | [6] -0.089

MANEA (UniProt Q5SRI9)
inactive: [1] -0.046 | [2] -0.044 | [3] -0.06 | [4] -0.018 | entinostat 0.008 | vorinostat 0.177 | citarinostat 0.017 | silmitasertib 0.058 | [5] -0.045 | [6] -0.113 | entospletinib -0.004

LRSAM1 (UniProt Q6UWE0)
inactive: [1] 0 | [2] 0.012 | [3] -0.121 | [4] 0.018 | entinostat 0.049 | vorinostat 0.04 | citarinostat 0.071 | silmitasertib 0.05 | [5] -0.006 | [6] 0.039 | entospletinib 0.014

MAP7D1 (UniProt Q3KQU3)
inactive: [1] 0.047 | [2] 0.091 | [3] 0.21 | [4] 0.078 | entinostat -0.001 | vorinostat -0.022 | citarinostat -0.061 | silmitasertib 0.082 | [5] 0.14 | [6] -0.177 | entospletinib 0.068

MARCHF6 (UniProt O60337)
inactive: [1] 0.105 | [2] -0.098 | [3] -0.075 | [4] -0.023 | entinostat 0 | vorinostat -0.013 | citarinostat 0.063 | silmitasertib -0.062 | [5] -0.011 | [6] -0.063 | entospletinib -0.055

LRRC8A (UniProt Q8IWT6)
inactive: [1] 0.039 | [2] 0.067 | [3] 0.055 | [4] -0.044 | entinostat -0.067 | vorinostat -0.026 | citarinostat 0.05 | silmitasertib 0.075 | [5] 0.135 | [6] -0.048 | entospletinib 0.29

MAN2A2 (UniProt P49641)
inactive: [1] -0.023 | [2] -0.002 | [3] -0.016 | [4] 0.115 | entinostat -0.021 | vorinostat 0.025 | citarinostat 0.016 | silmitasertib -0.035 | [5] -0.023 | [6] -0.075 | entospletinib -0.061

LYAR (UniProt Q9NX58)
inactive: [1] 0.22 | [2] 0.309 | [3] 0.397 | [4] 0.258 | entinostat -0.142 | vorinostat -0.087 | citarinostat -0.148 | silmitasertib 0.33 | [5] 0.361 | [6] -0.241 | entospletinib 0.033

MARCHF5 (UniProt Q9NX47)
inactive: [1] -0.014 | [2] 0.02 | [3] 0.027 | [4] 0.059 | entinostat 0.001 | vorinostat -0.067 | citarinostat -0.007 | silmitasertib 0.006 | [5] -0.041 | [6] -0.056 | entospletinib 0.008

Looked up one by one from the entries so far (two):
MAN2A2 (UniProt P49641)
inactive: [1] -0.023 | [2] -0.002 | [3] -0.016 | [4] 0.115 | entinostat -0.021 | vorinostat 0.025 | citarinostat 0.016 | silmitasertib -0.035 | [5] -0.023 | [6] -0.075 | entospletinib -0.061

LRRC8A (UniProt Q8IWT6)
inactive: [1] 0.039 | [2] 0.067 | [3] 0.055 | [4] -0.044 | entinostat -0.067 | vorinostat -0.026 | citarinostat 0.05 | silmitasertib 0.075 | [5] 0.135 | [6] -0.048 | entospletinib 0.29

More entries.

MAN1B1 (UniProt Q9UKM7)
inactive: [1] 0.009 | [2] 0.008 | [3] -0.055 | [4] -0.064 | entinostat 0.011 | vorinostat 0.003 | citarinostat -0.013 | silmitasertib 0.024 | [5] -0.049 | [6] -0.133 | entospletinib 0.139

MAN2B1 (UniProt O00754)
inactive: [1] 0.024 | [2] 0.033 | [3] -0.005 | [4] 0.091 | entinostat 0.007 | vorinostat 0.009 | citarinostat 0.06 | silmitasertib 0.037 | [5] 0.038 | [6] -0.011 | entospletinib 0.023

LYSMD2 (UniProt Q8IV50)
inactive: [1] -0.032 | [2] -0.045 | [3] -0.028 | [4] -0.023 | entinostat 0.055 | vorinostat -0.01 | citarinostat -0.032 | silmitasertib 0.025 | [5] -0.08 | [6] -0.012 | entospletinib 0.001

MACF1 (UniProt H3BQK9)
inactive: [1] 0.002 | [2] 0 | [3] -0.02 | [4] -0.154 | entinostat 0.054 | vorinostat 0.08 | citarinostat 0.098 | silmitasertib 0.139 | [5] 0.029 | [6] -0.187 | entospletinib 0.068

MACF1 (UniProt Q9UPN3)
inactive: [1] 0.006 | [2] -0.062 | [3] -0.05 | [4] 0.019 | entinostat 0.039 | vorinostat 0.047 | citarinostat -0.018 | silmitasertib 0.078 | [5] 0.048 | [6] -0.1 | entospletinib 0.105

MAP7 isoform 7 (UniProt Q14244)
inactive: [1] 0.102 | [2] 0.077 | [3] 0.169 | [4] 0.202 | entinostat -0.085 | vorinostat 0.161 | citarinostat 0.081 | silmitasertib 0.108 | [5] 0.188 | [6] -0.193 | entospletinib 0.086

LTA4H (UniProt P09960)
inactive: [1] 0.014 | [2] -0.117 | [3] -0.081 | [4] -0.022 | entinostat -0.011 | vorinostat 0.114 | citarinostat 0.064 | silmitasertib 0.022 | [5] -0.012 | [6] -0.037 | entospletinib -0.029

MACROD1 (UniProt Q9BQ69)
inactive: [1] 0.01 | [2] 0.066 | [3] -0.087 | [4] -0.147 | entinostat 0.056 | vorinostat 0.083 | citarinostat 0.022 | silmitasertib -0.106 | [5] -0.157 | [6] -0.054 | entospletinib -0.008

MAN1A1 (UniProt P33908)
inactive: [1] -0.031 | [2] -0.007 | [3] -0.006 | [4] -0.026 | entinostat -0.032 | vorinostat -0.047 | citarinostat 0.005 | silmitasertib -0.016 | [5] -0.057 | [6] -0.076 | entospletinib 0.018

LSM12 isoform 2 (UniProt Q3MHD2)
inactive: [1] 0.084 | [2] 0.006 | [3] -0.005 | [4] -0.009 | entinostat 0.049 | vorinostat -0.031 | citarinostat 0.052 | silmitasertib -0.026 | [5] 0.009 | [6] -0.042 | entospletinib 0.014

LRRFIP2 (UniProt Q9Y608)
inactive: [1] 0.029 | [2] -0.015 | [3] 0.046 | [4] 0.027 | entinostat -0.024 | vorinostat -0.029 | citarinostat 0 | silmitasertib 0.035 | [5] -0.033 | [6] -0.03 | entospletinib 0.035

MARS (UniProt P56192)
inactive: [1] 0.016 | [2] -0.053 | [3] -0.016 | [4] 0.002 | entinostat 0.017 | vorinostat 0.072 | citarinostat -0.01 | silmitasertib 0.047 | [5] 0.116 | [6] -0.08 | entospletinib 0.039

LSM4 (UniProt Q9Y4Z0)
inactive: [1] 0.033 | [2] 0.093 | [3] 0.016 | [4] 0.084 | entinostat 0.008 | vorinostat 0.016 | citarinostat 0.058 | silmitasertib 0.002 | [5] 0.036 | [6] -0.05 | entospletinib -0.031

MAPRE2 (UniProt Q15555)
inactive: [1] 0.522 | [2] 0.138 | [3] 0.069 | [4] 0.248 | entinostat 0.328 | vorinostat 0.045 | citarinostat 0.02 | silmitasertib 0.116 | [5] 0.336 | [6] -0.104 | entospletinib 0.036

LSM6 (UniProt P62312)
inactive: [1] 0.034 | [2] 0.068 | [3] 0.067 | [4] 0.151 | entinostat 0.004 | vorinostat 0.009 | citarinostat 0.032 | silmitasertib -0.015 | [5] -0.013 | [6] 0.001 | entospletinib 0.069

MAPK3 (UniProt P27361)
inactive: [1] 0.097 | [2] 0.067 | [3] -0.008 | [4] 0.068 | entinostat 0.039 | vorinostat 0.093 | citarinostat 0.116 | silmitasertib -0.045 | [5] 0.022 | [6] 0.059 | entospletinib -0.085

LYRM7 (UniProt Q5U5X0)
inactive: [1] -0.071 | [2] -0.041 | [3] -0.037 | [4] 0.072 | entinostat -0.019 | vorinostat 0.011 | citarinostat 0.013 | silmitasertib 0.007 | [5] -0.047 | [6] -0.035 | entospletinib 0.01

LTF (UniProt P02788)
inactive: [1] 0.68 | [2] 0.106 | [3] 0.001 | [4] -0.006 | entinostat -0.079 | vorinostat -0.021 | citarinostat 0.066 | silmitasertib 0.195 | [5] 0.071 | [6] 0.775 | entospletinib 0.384
